Test results: patent US20100173910A1, “TRIAMINOPYRIMIDINE CYCLOBUTENEDIONE DERIVATIVES USED AS PHOSPHATASE CDC25 INHIBITORS” (IPDRN PHSTMS D.S.S., priority 2007, published 2010)
Some entries share one result that the patent states for a list of compounds.

Test system: DU 145 (human prostate carcinoma cells)
Test: Anti-proliferative activity, DU 145 cells (WST1 colorimetric test)
Format: cell-based
Conditions: 96 hours treatment, up to 10 μM, nested upper bounds, read-out: IC50 for proliferation of the DU 145 cell lines
Protocol: ii) Characterisation of Anti-Proliferative Activity:
By way of an example, the effect of treating two human cell lines MIA PaCa-2 and DU 145 with the compounds of the examples described hereinbefore will be studied. The cell lines DU 145 (human prostate carcinoma cells) and MIA PaCa-2 (human pancreatic carcinoma cells) were obtained from the American Tissue Culture Collection (Rockville, Md., USA). A 96-well plate was inoculated on day 0 with cells in 80 μl of Dulbecco's modified Eagle's medium (Gibco-Brl, Cergy-Pontoise, France) with 10% heat-inactivated foetal calf serum (Gibco-Brl, Cergy-Pontoise, France), 50,000 units/l of penicillin and 50 mg/l of streptomycin (Gibco-Brl, Cergy-Pontoise, France) and 2 mM of glutamine (Gibco-Brl, Cergy-Pontoise, France). The cells were treated on day 1 for 96 hours with increasing concentrations of each test compound up to 10 μM. At the end of this period, cell proliferation is quantified by means of a colorimetric test based on cleavage of the tetrazolium salt WST1 by the mitochondrial dehydrogenases in the viable cells, resulting in formation of formazan (Boehringer Mannheim, Meylan, France). These tests are performed in duplicate with 8 determinations per concentration tested. For each test compound, the values within the linear part of the sigmoid curve were subjected to linear regression analysis and used to estimate the IC50 inhibitory concentration. The products are solubilised in dimethylsulfoxide (DMSO) at a concentration of 10^−2 M and used in culture with a final DMSO concentration of 0.1%.

| Compound | IC50 |
| --- | --- |
| O=c1c(NCCNc2cc(N3CCCC3)nc(N3CCCC3)n2)c(Nc2ccc(Cl)c(C(F)(F)F)c2)c1=O [Example 10, 3-{[4-chloro-3-(trifluoromethyl)phenyl]amino}-4-({2-[(2,6-dipyrrolidin-1-ylpyrimidin-4-yl)amino]ethyl}amino)cyclobut-3-ene-1,2-dione] | ≤ 5 µM |
| O=c1c(NCCNc2cc(N3CCCC3)nc(N3CCCC3)n2)c(Nc2ccc(-c3ccccc3)cc2)c1=O [Example 11, 3-(biphenyl-4-ylamino)-4-({2-[(2,6-dipyrrolidin-1-ylpyrimidin-4-yl)amino]ethyl}amino)cyclobut-3-ene-1,2-dione] | ≤ 5 µM |
| O=c1c(NCCNc2cc(N3CCCC3)nc(N3CCCC3)n2)c(Nc2cc(F)cc(F)c2)c1=O [Example 15, 3-[(3,5-difluorophenyl)amino]-4-({2-[(2,6-dipyrrolidin-1-ylpyrimidin-4-yl)amino]ethyl}amino)cyclobut-3-ene-1,2-dione] | ≤ 5 µM |
| O=c1c(NCCNc2cc(N3CCCC3)nc(N3CCCC3)n2)c(Nc2cccc(Cl)c2)c1=O [Example 17, 3-[(3-chlorophenyl)amino]-4-({2-[(2,6-dipyrrolidin-1-ylpyrimidin-4-yl)amino]ethyl}amino)cyclobut-3-ene-1,2-dione] | ≤ 5 µM |
| CCCc1ccc(Nc2c(NCCNc3cc(N4CCCC4)nc(N4CCCC4)n3)c(=O)c2=O)cc1 [Example 24, 3-({2-[(2,6-dipyrrolidin-1-ylpyrimidin-4-yl)amino]ethyl}amino)-4-[(4-propylphenyl)amino]cyclobut-3-ene-1,2-dione] | ≤ 5 µM |
| O=c1c(NCCNc2cc(N3CCCC3)nc(N3CCCC3)n2)c(Nc2ccc(C(F)(F)F)cc2)c1=O [Example 32, 3-({2-[(2,6-dipyrrolidin-1-ylpyrimidin-4-yl)amino]ethyl}amino)-4-{[4-(trifluoromethyl)phenyl]amino}cyclobut-3-ene-1,2-dione] | ≤ 5 µM |
| O=c1c(NCCNc2cc(N3CCCC3)nc(N3CCCC3)n2)c(Nc2ccc([N+](=O)[O-])cc2)c1=O [Example 34, 3-({2-[(2,6-dipyrrolidin-1-ylpyrimidin-4-yl)amino]ethyl}amino)-4-[(4-nitrophenyl)amino]cyclobut-3-ene-1,2-dione] | ≤ 5 µM |
| O=c1c(NCCNc2cc(N3CCCC3)nc(N3CCCC3)n2)c(Nc2ccc(Cl)c(F)c2)c1=O [Example 36, 3-[(4-chloro-3-fluorophenyl)amino]-4-({2-[(2,6-dipyrrolidin-1-ylpyrimidin-4-yl)amino]ethyl}amino)cyclobut-3-ene-1,2-dione] | ≤ 5 µM |
